Measured values from the supplement of paper PMC12889115.
This is one part of the list. These are raw signals, not scaled to a control.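 Primary screen: polymyxin B was added at a level permeabilizing Salmonella outer membranes while sparing inner membranes. DMSO wells, both with and without polymyxin B, established maximum growth. Plate-to-plate variation meant each plate was ranked on its own, and the lowest-OD600 compounds were selected as hits.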

Test system: Salmonella enterica serovar Typhimurium SL1344
Assay: bacterial growth OD600 after 18 h with compound and polymyxin B; higher = more bacterial growth (less inhibition)
Settings: 50 µM, Mueller-Hinton broth

Cc1cc(C)n(CC(=O)N2CCc3onc(-c4ccc(F)c(F)c4)c3C2)n1
bacterial growth OD600 (polymyxin B 0.75 µg/mL): 0.895

O=C(CC(c1cccc(O)c1)c1ccccc1Cl)N1CCC(O)CC1 (configuration not stated)
bacterial growth OD600 (polymyxin B 1 µg/mL): 0.797

Cc1[nH]c2ccccc2c1CC(=O)NCCN1Cc2ccccc2OC(c2ccsc2)C1 (configuration not stated)
bacterial growth OD600 (polymyxin B 0.75 µg/mL): 0.632

O=C(C1CC1)N1CCCC(CCc2ccccc2)C1 (configuration not stated)
bacterial growth OD600 (polymyxin B 0.75 µg/mL): 0.678

CSc1ccccc1C(=O)NCC1Cc2cc(-c3ccccc3C(C)=O)ccc2O1 (configuration not stated)
bacterial growth OD600 (polymyxin B 0.75 µg/mL): 0.003

CC(C)n1cc(CN2CCCC2C(=O)Nc2cccc(-n3cccn3)c2)cn1 (configuration not stated)
bacterial growth OD600 (polymyxin B 1 µg/mL): 0.982

COc1cccc(CCC2CCCN(Cc3cnn(C)c3C)C2)c1 (configuration not stated)
bacterial growth OD600 (polymyxin B 0.75 µg/mL): 0.872

COCCN1CCN(C(=O)CN2Cc3cc(C)ccc3OC(c3ccsc3)C2)CC1 (configuration not stated)
bacterial growth OD600 (polymyxin B 0.75 µg/mL): 0.851

O=C(CCN1Cc2ccccc2OC(c2ccccc2F)C1)NC(c1ccccc1)c1ccncc1 (configuration not stated)
bacterial growth OD600 (polymyxin B 0.75 µg/mL): 0.013

CCc1nc(C)c(CNC(C)c2cnc(N(C)C3CCCCC3)nc2C)[nH]1 (configuration not stated)
bacterial growth OD600 (polymyxin B 0.75 µg/mL): 0.02

C=CCCC(=O)N1CCC2(CCCN(Cc3ccc(F)cc3)C2=O)C1 (configuration not stated)
bacterial growth OD600 (polymyxin B 1 µg/mL): 1.01

Cc1cccc(C)c1Oc1ncccc1CNC1CCSCC1
bacterial growth OD600 (polymyxin B 1 µg/mL): 0.828

COc1ccc(CN2CCN(Cc3csc(C(C)=O)c3)CC2CCO)c(C)c1C (configuration not stated)
bacterial growth OD600 (polymyxin B 1 µg/mL): 0.81

O=C1CCC(C(=O)N2CCC(Cn3cccn3)CC2)CN1Cc1cccc(C(F)(F)F)c1 (configuration not stated)
bacterial growth OD600 (polymyxin B 1 µg/mL): 0.865

COc1cc(=O)n2c(c1C(=O)NCc1cccc(F)c1)CCN(Cc1ccc(NC(C)=O)cc1)CC2
bacterial growth OD600 (polymyxin B 0.75 µg/mL): 0.876

CN(C)C1CCN(C(=O)c2cn(C(c3ccccc3)c3ccccc3)nn2)C1 (configuration not stated)
bacterial growth OD600 (polymyxin B 1 µg/mL): 0.831

CCN1CCN(C(=O)CCC2CCN(C(C)Cn3nc(C)cc3C)CC2)CC1 (configuration not stated)
bacterial growth OD600 (polymyxin B 1 µg/mL): 1.06

COc1ccc(C(=O)N2CCCC(C(=O)c3ccc(Cl)cc3C)C2)c(OC)c1OC (configuration not stated)
bacterial growth OD600 (polymyxin B 1 µg/mL): 0.666

CCOC(=O)N1CCN(Cc2nc(-c3cccc(F)c3)oc2C)CC1
bacterial growth OD600 (polymyxin B 1 µg/mL): 0.786

O=C(c1coc(COc2ccc(F)cc2Cl)n1)N1CCCC1
bacterial growth OD600 (polymyxin B 1 µg/mL): 0.809

C#CCN(CC=C)C(=O)C1CCC(=O)N(CC2CCCCC2)C1 (configuration not stated)
bacterial growth OD600 (polymyxin B 1 µg/mL): 0.915

Cc1csc(SCC(=O)NCC2Cc3cc(F)cc(-c4cccnc4)c3O2)n1 (configuration not stated)
bacterial growth OD600 (polymyxin B 0.75 µg/mL): 0.898

CN(C)C1CCN(C(=O)c2cccc(OC3CCN(C(=O)C4CC4)CC3)c2)C1 (configuration not stated)
bacterial growth OD600 (polymyxin B 1 µg/mL): 1.08

O=C(CC1(c2cccc(F)c2)CC(=O)N(C2CCCC2)C1=O)N1CCN(c2ccccc2)C(=O)C1 (configuration not stated)
bacterial growth OD600 (polymyxin B 0.75 µg/mL): 0.963

COc1ccc(CN2CCCC(CNC(=O)c3cccs3)C2)c(F)c1 (configuration not stated)
bacterial growth OD600 (polymyxin B 1 µg/mL): 0.931

CCNC(=O)c1cn(CC(C)C)cc(C(=O)NCc2cccc(F)c2)c1=O
bacterial growth OD600 (polymyxin B 0.75 µg/mL): 0.678

COc1c(C)cc(C(=O)C2CCCN(Cc3nc4ccccc4[nH]3)C2)cc1C (configuration not stated)
bacterial growth OD600 (polymyxin B 1 µg/mL): 0.58

O[C@@H]1CN(C2Cc3ccccc3C2)CC[C@H]1N1CCN(c2ccccn2)CC1
bacterial growth OD600 (polymyxin B 1 µg/mL): 0.898

C=CCCC(=O)NC1CC(=O)N(CCc2ccc(F)cc2)C1 (configuration not stated)
bacterial growth OD600 (polymyxin B 1 µg/mL): 1.01

COc1ccccc1CCN1CCCC(CN(C)C(=O)Cn2cnc3ccccc3c2=O)C1 (configuration not stated)
bacterial growth OD600 (polymyxin B 1 µg/mL): 0.942

COC(=O)CNC(=O)Cc1c2c(n(Cc3ccccc3F)c1C)CCCC2=O
bacterial growth OD600 (polymyxin B 1 µg/mL): 1.12

O=C(c1cscn1)N1CCC2(CCCN(CCCc3ccccc3)C2=O)C1 (configuration not stated)
bacterial growth OD600 (polymyxin B 1 µg/mL): 0.911
